Assay results as given in publication PMC3576375.
No constants are given. Whether binding was seen depends on the method and setting. Some results given as binding are weak or reduced against the parent protein; the word gives no strength.

Tests used:
[1] = molecular target: CT584 (Chlamydia trachomatis L2/434) (UniProt O84588); assay: two-hybrid; bacterial adenylate cyclase two-hybrid (BACTH) in Cya-deficient E. coli BTH101; T18 and T25 fusions; blue colonies on LB with IPTG and X-gal, 24 h at 28°C, then β-galactosidase activity with ONPG; Fig. 1B and 1C
[2] = molecular target: T1, Scc4 (Chlamydia trachomatis L2/434), O84670; assay: as above; conditions: remark: other sources report otherwise
T1 chain: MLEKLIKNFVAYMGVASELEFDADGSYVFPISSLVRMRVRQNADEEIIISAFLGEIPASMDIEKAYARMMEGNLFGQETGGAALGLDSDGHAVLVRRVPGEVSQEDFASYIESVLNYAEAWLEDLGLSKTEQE

B1: CT584 (protein, UniProt O84588 1-183)
chain: MTTKPKTLEIDNNTFLLLEGNLKRIFATPIGYTTFREFQNVVFNCAQGQQELANFLFEMLINGKLLQELPAGQKQSAQSLIVQFMMPIRVAKDIHERGEFINFITSDMLAQQERCVFLNRLSRVDGQEFLLMTDVQNTCHLIRHLLSRLLEAQKNPIGEKNLQEIQEDLDSLRAHFEELTKSV
binding [1]: binds

B2: Scc4, O84670 1-133 (protein)
chain: T1 chain
binding [2]: binds
